3 molecules from PMC6579518 can be followed below.

Amino acid sequences for entries named in this document (tags omitted). A change or cut given only in a name is not applied to a line headed by its entry.
UniProt P05738: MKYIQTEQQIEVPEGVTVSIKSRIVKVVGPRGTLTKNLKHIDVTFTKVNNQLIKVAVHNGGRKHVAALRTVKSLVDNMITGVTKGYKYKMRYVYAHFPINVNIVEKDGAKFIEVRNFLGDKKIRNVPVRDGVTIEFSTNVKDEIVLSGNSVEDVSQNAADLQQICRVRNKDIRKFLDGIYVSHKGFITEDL
UniProt P04449: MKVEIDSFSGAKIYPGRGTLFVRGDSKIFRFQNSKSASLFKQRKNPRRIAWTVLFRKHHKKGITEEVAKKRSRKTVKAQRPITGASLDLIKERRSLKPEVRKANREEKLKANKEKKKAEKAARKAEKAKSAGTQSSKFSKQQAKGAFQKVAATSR

Experiment [1] has as its target ribosomal protein uL6 (S. cerevisiae (endogenous in the Lsg1-TAP strain)) (UniProt P05738). Put plainly: cryo-EM structure; native pre-60S particles purified by Lsg1-TAP from S. cerevisiae, 0.5% glutaraldehyde 10 min 4°C, 40 nM on grids; six states (I-VI) by 3D classification, 3.1-3.9 Å.
Experiment [2] has as its target ribosomal protein eL24 (S. cerevisiae (endogenous in the Lsg1-TAP strain)) (UniProt P04449). Put plainly: cross-linking; XL-MS: Lsg1-TAP pre-ribosomal particles (tandem affinity purified, BY4741) cross-linked with 1.5 mM DSS d0/d12 in 20 mM HEPES pH 8.3, 5 mM MgCl2; trypsin, LC-MS/MS, xQuest; two biological replicates.
For experiment [3] the target is unchanged. Put plainly: cryo-EM structure; native pre-60S particles purified by Lsg1-TAP from S. cerevisiae, 0.5% glutaraldehyde 10 min 4°C, 40 nM on grids; six states (I-VI) by 3D classification, 3.1-3.9 Å.

These are yes or no findings as the source states them, for the method shown. Binding can be weak; no strength is given. For some assays here: Binding seen in cells or lysates may run through a third protein.

B1: Yvh1 (protein, UniProt Q02256 1-364)
chain: MAGNANSVDEEVTRILGGIYLGGIRPIIDHRPLGAEFNITHILSVIKFQVIPEYLIRKGYTLKNIPIDDDDVTDVLQYFDETNRFIDQCLFPNEVEYSPRLVDFKKKPQRGAVFAHCQAGLSRSVTFIVAYLMYRYGLSLSMAMHAVKRKKPSVEPNENFMEQLHLFEKMGGDFVDFDNPAYKQWKLKQSIKLDPSGSELVSNSGMFKDSESSQDLDKLTEAEKSKVTAVRCKKCRTKLALSTSFIAHDPPSKESSEGHFIKRAANSHRIIDIQESQANCSHFFIEPLKWMQPELQGKQELEGKFSCPGCSSKVGGYNWKGSRCSCGKWVIPAIHLQTSKVDQFPLQSTALPNMVNFESEKVNR
Take B1: the binding result in experiment [1] is given as “binds”.

B2: Rei1 (protein, UniProt P38344 1-393)
chain: MSSSGVYTCNSCVLTFDSSDEQRAHMKSDWHRYNLKRRVAQLPPISFETFDSKVSAAAASTSKSAEKEKPVTKKELKRREKQALLEKKKKLLEIARANMLENMQKSQEGNTPDLSKLSLQENEENKEKEEPKKEEPEQLTEEEMAERVMQEKLRNRVDIPLEQCLFCEHNKHFKDVEENLEHMFRTHGFYIPEQKYLVDKIGLVKYMSEKIGLGNICIVCNYQGRTLTAVRQHMLAKRHCKIPYESEDERLEISEFYDFTSSYANFNSNTTPDNEDDWEDVGSDEAGSDDEDLPQEYLYNDGIELHLPTGIKVGHRSLQRYYKQDLKPEVILTEGQGTLVAAETRSFLPAFDKKGVQTQQRVWQTERFDKKRLDKRSAKFVNNQPHYRDQLLQ
Regarding B2, the binding result in experiment [2] and in experiment [3] was “binds” each time.

B3: Reh1 (protein, UniProt Q06709 1-432)
chain: MSSTFFTCNCCVIQFKTSDLQRYHMKTEWHRYNLKRRIANLPPIGAEQFAEKLQISEKEQAENQVDEFGFPVLKPVMNQSNALPQKQKKPIKSKRGRKVGTNLLKRKDRDIAKEKQNRSVSPSGSISSQLSNLTVGTENTNTDYGEDTVSEYGFTSDSNYEYATSDEELDIADKPSDKENEKITITECIYCGKDNKEVERNVKHMFSEHGLFIPERSYLIDLNGLLEFLIKMIVIDHNCLCCNFHGSGLESIRAHMASKRHCRLPYETKEERQLFAPFYDFTYDDHSISKNLQNDRAITSKLSSVYGAKNDEEDGEVDITLVSSENDINANYTTVSIDESGLELTLPTGARLGHRAGQRYYRQNLPSQPNPNESRRTITAADRRMVSGVTEKQYKKGMKKMQQLEKNAINTQIRREIKRVNFQTHYRDELLQ
Turning to B3, the binding entry in experiment [2] and in experiment [3] was “binds” each time.
